# Measured values from the supplement of paper PMC7125110.
# ± gives the standard error. The uncertainty is large for many entries.
# B1: glmS ribozyme (parent)
# chain: AUAAAAGCGCCAGAACUACAGAAAUGUAGUUGACGAGGAGGAGGUUUAUCGAAUUUUCGGCGGAUGCCUCCAAA
# Variants of: B1
# Experiment: self-cleavage kobs at 10000 uM GlcN6P; higher = faster cleavage; RNA array
# Conditions: with glucosamine-6-phosphate
# Method in brief: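 Ribozyme variants carrying barcodes were transcribed in situ on sequenced MiSeq chips by E. coli RNA polymerase and tracked at 37 °C with a hybridised Cy3 probe. They were exposed to 40 μM to 10 mM glucosamine-6-phosphate in HEPES/KCl/Mg(OAc)2 buffer. kobs came from exponential decay fits of normalised per-tile medians, and kcat and KM from weighted Michaelis–Menten fits.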
row,Variant,self-cleavage kobs at 10000 uM GlcN6P
1,AUAAAAGCGCCAGAACUACAGAAAUGUAGUUCACGAGGAGGAGGGUUAUCGAAUUUUCGGCGGAUGCCUCCAAA [G32C U45G],2.11e-05 ± 1.6e-05 s⁻¹
2,AUAAAAGCGCCAGAGCUACAGAAAUGUACUGGACGAGGAGGAGGUUUAUCGAAUUGUCGGCGGAUGGCUCCAAA [A15G G29C U31G U56G C67G],3.24e-05 ± 2e-05 s⁻¹
3,AUAAAAGCGCCAGAACUACAGAAAUGUACUCGACGAGGAGGAGGUUUAUCGAAUUUUCGGCGGAUGCCUCAAAA [G29C U31C C71A],2.7e-05 ± 2.3e-05 s⁻¹
4,AUAAAAGCGCCAGGACUACAGAAAUGUAGUUGACGAGGAGGACGUUUAUCGAAUUAUCGGCGGAUGCCUCCAAA [A14G G43C U56A],2.06e-05 ± 1.5e-05 s⁻¹
5,AUAAAAGCGCCAGAACUACAGAAAUGUAGUUGACGAGGUGGAGGUUUAUCGAAUUUUCGACGGAUGCCUCCAAA [A39U G60A],1.76e-05 ± 1.3e-05 s⁻¹
6,AUAAAAGCGCCAGAACUACAGAAAUGUAGUUGACGAGGAGGAUGUUUAUCGAUUUUUCGGCGGGUGCCUCCAAA [G43U A53U A64G],2.7e-05 ± 1.4e-05 s⁻¹
7,AUAAAAGCGCCAGAACUACAGAAAUGUAGUUGACGAGGAGGAGGUUUAUCGAAUUUUCGGUGGAUGACUUCAAA [C61U C67A C70U],3.03e-05 ± 1.6e-05 s⁻¹
8,AUAAAAGCGCCAGAACUACAGAAAUGUAGUUGACGAGGAGGAGGUUUAUCGAAUGUGCGGCGGAUGCCCCAAAA [U55G U57G U69C C71A],2.2e-05 ± 1.8e-05 s⁻¹
9,AUAAAAGCGCCAGAAUUACAGAAAUGUAGUUGACGGGGAGGAGGUUUAUCGAAUUUUCGGCGGAUGCCUCCAAA [C16U A36G],1.83e-05 ± 1.6e-05 s⁻¹
10,AUAAAAGCGCCAGAACUACAGAAAUGUACUUGACGAGGAGGAGGUUUAUCGAAUUUUCGGCGGAUGCCACCAAA [G29C U69A],2.07e-05 ± 1.9e-05 s⁻¹
11,AUAAAAGCGCCAGAACUACAGAAAUGUAGUUGACGAGGAGGAUGUUAAUCGAAUUUUCGGCGGAUGCCUCCAAA [G43U U47A],2.04e-05 ± 1.2e-05 s⁻¹
12,AUAAAAGCGCCAGAACUACAGAAAUGUAGUGGACGAGGAGGAGGUUUAUCGAAGUUUCGGCGGAUGGAUGCAAA [U31G U54G C67G C68A C70G],3.48e-05 ± 2e-05 s⁻¹
13,AUAAAAGCGCCAGAACUACAGAAAUGUAGCUGUCGAGGAGGAGGUUUAUCGAAUUUUCGGCGGAUGCCUCCAAA [U30C A33U],1.58e-05 ± 1.3e-05 s⁻¹
14,AUAAAAGCGCCUGAACUACAGAAAUGUAGUUGACGAGGAGGAGGGAUAUCGAAUUUUCGGCGGAUGCCUCCAAA [A12U U45G U46A],0.00205 ± 0.0011 s⁻¹
15,AUAAAAGCGCCAGAACUACAGAAAUGUAGUUGACGGGGAGGAGGAUUAUCGAAUUUUCGGCGGAUGCCUCCAAA [A36G U45A],2.49e-05 ± 1.6e-05 s⁻¹
16,AUAAAAGCGCCAGGACUACAGAAAUGUAGUUGACGAGGAGGAGGAUUAUCGAAUUUUCUGCGGAUCCCUCCAAA [A14G U45A G59U G66C],2.19e-05 ± 1.9e-05 s⁻¹
17,AUAAAAGCGCUAGAACUACAGAAAUGUAGUUCACGAGGAGGAGGUUUAUCGAAUUUUUGGCGGAUGCCUGCAAA [C11U G32C C58U C70G],3.14e-05 ± 1.8e-05 s⁻¹
18,AUAAAAGCGCCAGAACUACAGAAAUGUAGGUGACGAGGAGGAGGUUUAUCGAAUUUUCGGCGGAUGCCGCCAAA [U30G U69G],1.41e-05 ± 9e-06 s⁻¹
19,AUAAAAGCGCCAGAACUACAGAAAUGUAGUUGACGAGGAGGAGGUUUAUCGAAGUUUCGGCGGAUGCAUCCAAA [U54G C68A],2.08e-05 ± 1.3e-05 s⁻¹
20,AUAAAAGCGCCUGAACUACAGAAAUGUAGUUGACGAAGAGGAGGUUUAUGGAAUUUUCGGCGGAUGACUCCAAA [A12U G37A C50G C67A],2.7e-05 ± 2e-05 s⁻¹
21,AUAAAAGCGCCAGAGCUACAGAAAUGUAGUUGACGAGGAGGAUGUUUAUCGACUUUUCGGCGGAUGCCUCCAAA [A15G G43U A53C],1.58e-05 ± 1.3e-05 s⁻¹
22,AUAAAAGCGCCAGAACUACAGAAAUGUAGUUGACGGGGAGGAGGUUUAUCGAAUGUUCGGCGGAUGCCUCCAAA [A36G U55G],1.64e-05 ± 1.4e-05 s⁻¹
23,AUAAAAGCGCCAGAAUUACAGAAAUGUAGUUGACGAGGAGGAGGUUUAUCGAAUUUACGGCGGAUGCCUGCAAA [C16U U57A C70G],2.21e-05 ± 1.8e-05 s⁻¹
24,AUAAAAGCGCCAGAACUACAGAAAUGUAGUUGACGAGGGGGACGAUUAUCGAAUUUUCGGCGGAUGCCUCCAAA [A39G G43C U45A],2.5e-05 ± 1.9e-05 s⁻¹
25,AUAAAAGCGCCAGAAUUACAGAAAUGUAGUUGACGAGGAGGAGGUUUAUCGAAGUUUGGGCGGAUGGCUCCAAA [C16U U54G C58G C67G],2.95e-05 ± 1.7e-05 s⁻¹
26,AUAAAAGCGCCAGAACUACAGAAAUGUAGUUGACGAGGAGGAGGUUAAUCGAACUUUUGGCGGAUGCCUCCAAA [U47A U54C C58U],2.65e-05 ± 1.6e-05 s⁻¹
27,AUAAAAGCGCCAGAACUACAGAAAUGUAGUUGACGAGGAGGAGGUUUAUCGAAUUUUCGGCGGAAGCCGCCAAA [U65A U69G],2.68e-05 ± 2.1e-05 s⁻¹
28,AUAAAAGCGCCCGAACUACAGAAAUGUAGUUGACGAGGAGGAGGGUUAUCGAAUUUUCGGCGGUUGCCUCCAAA [A12C U45G A64U],3.83e-05 ± 2e-05 s⁻¹
29,AUAAAAGCGCCAGAACUACAGAAAUGUAGUUGACGAGGAGGAGGGUUGUCGAAUUUUCGGCGGAUGCCUCUAAA [U45G A48G C71U],2.55e-05 ± 2.4e-05 s⁻¹

# In another format: entries from further up
row	Variant	self-cleavage kobs at 10000 uM GlcN6P
16	AUAAAAGCGCCAGGACUACAGAAAUGUAGUUGACGAGGAGGAGGAUUAUCGAAUUUUCUGCGGAUCCCUCCAAA [A14G U45A G59U G66C]	2.19e-05 ± 1.9e-05 s⁻¹
17	AUAAAAGCGCUAGAACUACAGAAAUGUAGUUCACGAGGAGGAGGUUUAUCGAAUUUUUGGCGGAUGCCUGCAAA [C11U G32C C58U C70G]	3.14e-05 ± 1.8e-05 s⁻¹
